In PubChem BioAssay AID1487 (National Center for Advancing Translational Sciences (NCATS), 2009) one finds AC50 data, which are given here for 54 compounds.

The term AC50 denotes the midpoint of the concentration-response curve, whichever way the signal moves.

A short description of the test: qHTS Assay for Modulators of Lamin A Splicing. The conditions noted are these: HeLa LMNA splicing GFP/RFP minigene ratio, 48 h. Put shortly: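 S3 HeLa stable clones carrying a lamin A-EGFP splicing minigene plus DsRed2 were seeded at 600 cells/well in Opti-MEM with 2% FBS, pin-dosed and incubated 48 h at 37°C. Acumen cytometry (488 nm) gave the GFP/RFP total-intensity ratio.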

[1] abbreviates: measured here: GFP splicing reporter channel.
Where [2] appears, read: measured here: RFP viability control channel.

The other results are listed elsewhere or left out. These are further read-outs of the screen, such as a control signal, another cell line or another target. No call is given for them. Compounds called inactive in the main read-out are mostly missing here. Potencies come from curve fits of mixed quality, noted in brackets.

Turning to `CCN(CC)C(=O)Oc1ccnc2cc(Cl)ccc12`, the concentration at half-maximal activity (AC50) under setting [1] was 12.6 µM [falling, partial curve, poor fit]. Still for that read-out and setting: to `O=C(O)c1cccnc1Nc1cccc(C(F)(F)F)c1` belongs 14.1 µM [falling, single point]. `Clc1cccc(NCc2nnc(SCc3ccc(Cl)cc3Cl)o2)c1`: the AC50 by setting is: under setting [1], 35.5 µM [rising, single point]; under setting [2], 25.1 µM [rising, single point]. Turning to `N#Cc1ccccc1NC(=O)C(=O)NCC(c1cccnc1)N1CCN(c2ccccc2)CC1` (centres undefined), under setting [2], the half-maximal activity concentration (AC50) is 35.5 µM [rising, single point].

On to `CCCCOc1ccccc1NC(=O)Cn1c(-c2nonc2N)nc2ccccc21`, for which the AC50 reads like this: under setting [1], 35.5 µM [falling, single point]; under setting [2], 1.26 µM [rising, full curve]. On to `Cc1ccc(-c2c(=O)n(OCc3ccccn3)c3ccccc3[n+]2[O-])cc1`, for which the AC50 under setting [2] was 0.1 µM [falling, partial curve, poor fit].

For `Cc1cc2oc(=O)cc(CSc3nnc(C)n3N)c2cc1C(C)C`, under setting [2], the AC50 was 0.00316 µM [falling, full curve, poor fit]. For `COc1cccc(COCCN2CCN(S(=O)(=O)c3ccc(C)cc3)CCC2=O)c1`, under setting [2], the concentration at half-maximal activity (AC50) is 12.6 µM [rising, single point].

Consider `c1cncc(-c2nc(Oc3ccc(-c4nnco4)cc3)c3c4c(sc3n2)CCCC4)c1`, for which the AC50 under setting [2] is 0.126 µM [falling, partial curve]. Turning to `Cc1cc(C)n(-c2nc3ccccc3c(=O)n2OCC(=O)OCc2ccccc2)n1`, the concentration at half-maximal activity (AC50) under setting [2] is 15.8 µM [rising, partial curve]. Consider `CC1CC(OC(=O)C(O)c2ccccc2)CC(C)(C)C1` (centres undefined), for which the concentration at half-maximal activity (AC50) by setting is: under setting [1], 0.00158 µM [falling, full curve, poor fit]; under setting [2], 22.4 µM [falling, single point]. On to `Cc1cc[n+](CC(=O)c2ccc(NC(=O)c3ccccc3)cc2)cc1`, for which the half-maximal activity concentration (AC50) under setting [2] was 14.1 µM [falling, partial curve, poor fit]. For `Cc1cccc(N(C(=O)c2nsc(Cl)c2Cl)C(C(=O)NC2CCCC2)c2ccc(O)cc2)c1` (centres undefined), the AC50 under setting [2] was 17.8 µM [rising, partial curve, poor fit].

As to `Cc1cc(NCCCCO)n2c(nc3ccccc32)c1C#N`, the AC50 under setting [2] is 7.08 µM [rising, full curve, poor fit]. For `CCOC1(OCC)C(c2ccc(Cl)cc2)C(C#N)(C#N)C1(OCC)OCC` (centres undefined), the AC50 under setting [1] is 5.01 µM [falling, partial curve].

With `CC(C)C(C(=O)Nc1nccs1)c1ccccc1` (centres undefined), the AC50 was 15.8 µM [rising, partial curve, poor fit] under setting [1] and 8.91 µM [rising, partial curve, poor fit] under setting [2]. For `COc1ccc(C(=O)Nc2ccc(-c3cc(C(F)(F)F)nn3-c3ccccc3)cc2)cc1OC`, the AC50 under setting [1] was 1.58 µM [falling, partial curve, poor fit]. Take `CN(C(=O)CCCN1C(=O)c2cccc3cccc(c23)C1=O)c1ccccc1`: the AC50 under setting [2] is 3.98 µM [rising, partial curve, poor fit].

With `CCc1[nH]nc2c1C(C1C=CCCC1)C(C#N)=C(N)O2` (centres undefined), the AC50 under setting [1] is 8.91 µM [falling, partial curve]. With `CCOC(=O)c1[nH]c(C)c(C(=O)C(C)C)c1C`, the AC50 under setting [2] is 0.112 µM [falling, full curve, poor fit]. On the same count and under the same terms, then `COc1ccc(-c2nn(-c3ccc(F)cc3F)c3c2cnc2ccc(F)cc23)cc1`, with 14.1 µM [falling, partial curve, poor fit].

As to `O=C(/C=C/c1ccc(Cl)cc1Cl)N1CCN(c2ccccc2[N+](=O)[O-])CC1`, the AC50 was 12.6 µM [rising, single point] under setting [1] and 20 µM [rising, single point] under setting [2]. For `CC(C)NC(=O)COC(=O)/C=C/c1ccc(F)cc1`, the AC50 under setting [2] was 0.0891 µM [rising, full curve, poor fit]. Turning to `COC(=O)c1cn(CCOc2ccccc2F)c2ccccc12`, the half-maximal activity concentration (AC50) is, setting by setting: under setting [1], 35.5 µM [rising, single point]; under setting [2], 25.1 µM [rising, single point]. For `Cc1cc(C(=O)CSc2nnc(-c3cccc(F)c3)n2N)c(C)n1Cc1ccc2c(c1)OCO2`, the concentration at half-maximal activity (AC50) runs as follows: under setting [1], 3.98 µM [rising, single point]; under setting [2], 14.1 µM [rising, single point]. Consider `Cc1ccc(NC(=O)Cc2c[nH]c3ccccc23)cc1S(=O)(=O)N1CCCCCC1`, for which the concentration at half-maximal activity (AC50) under setting [2] was 14.1 µM [rising, partial curve]. Take `Cc1ccccc1C(=O)Nc1ccc(C(=O)N/N=C/c2ccc(O)c(Br)c2)cc1`: the concentration at half-maximal activity (AC50) was 4.47 µM [falling, partial curve, poor fit] under setting [1] and 1.41 µM [falling, full curve, poor fit] under setting [2]. Regarding `Cc1cn2c(=O)cc(COC(=O)C(C)Oc3ccccc3)nc2s1` (centres undefined), the AC50 under setting [2] is 0.0224 µM [falling, full curve, poor fit]. The same measure, in the same setting: then `COP(=O)(CC(=O)c1ccccc1)CC(=O)c1ccccc1`, with 0.00447 µM [rising, full curve, poor fit]. For the compound `CC(CCc1ccccc1)NCC(O)c1ccc(O)c(C(N)=O)c1` (centres undefined), the AC50 under setting [2] is 0.398 µM [falling, partial curve, poor fit]. Turning to `COc1cccc(/C=C/C(=O)NCCc2ccc(OC)c(OC)c2)c1`, the half-maximal activity concentration (AC50) was 3.16 µM [falling, partial curve] under setting [1] and 6.31 µM [falling, single point] under setting [2]. For the compound `O=Cc1cc(N=Nc2ccccc2Cl)ccc1O`, the half-maximal activity concentration (AC50) was 1 µM [falling, partial curve] under setting [1] and 35.5 µM [rising, single point] under setting [2]. On to `CCCCN=C1NN=C(c2cc3ccccc3o2)CS1`, for which the AC50 reads like this: under setting [1], 2.51 µM [rising, full curve, poor fit]; under setting [2], 5.01 µM [rising, partial curve].

Consider `CC(C)c1[nH]nc2c1C(C(C)C)C(C#N)=C(N)O2` (centres undefined), for which the half-maximal activity concentration (AC50) under setting [2] is 12.6 µM [rising, partial curve].

In the case of `CCOC(=O)N/N=C/c1cn(CCCOc2ccccc2)c2ccccc12`, the AC50 under setting [2] was 25.1 µM [rising, single point].

Regarding `O=C1CC(c2ccccc2)=Nc2ccc(Br)cc2N1`, the AC50 under setting [1] is 0.0158 µM [falling, full curve, poor fit]. For `COc1ccc(N2CC(NC(=O)c3ccc(S(=O)(=O)N4CCOCC4)cc3)CC2=O)cc1` (centres undefined), the AC50 was 0.141 µM [falling, full curve] under setting [1] and 1.78 µM [falling, partial curve, poor fit] under setting [2]. Consider `CCN(CC)C(=O)C1CCCc2c1[nH]c1ccc(Cl)cc21` (centres undefined), for which the concentration at half-maximal activity (AC50) under setting [2] was 5.01 µM [rising, full curve]. As for `O=C(N/N=C/c1ccc([N+](=O)[O-])cc1)c1[nH]ncc1Br`, the concentration at half-maximal activity (AC50) under setting [1] is 1.58 µM [falling, full curve, poor fit]. On the same count and under the same terms, then `COCCn1c(=O)c(CCc2ccccc2)nc2cnc(Oc3ccccc3)nc21`, with 14.1 µM [falling, partial curve]. Regarding `COc1ccccc1C1C(C#N)=C(N)Oc2c1c(-c1ccccc1)nn2-c1ccccc1` (centres undefined), under setting [2], the AC50 is 25.1 µM [rising, partial curve]. On to `CCc1cc2c(=O)c(-c3ccc4c(c3)OCCO4)coc2c(CN2CCCCC2C)c1O` (centres undefined), for which the AC50 under setting [1] is 6.31 µM [rising, single point] and the concentration at half-maximal activity (AC50) under setting [2] is 22.4 µM [falling, single point]. Regarding `COc1ccc(/C=N/NC(=S)Nc2cc(S(=O)(=O)N3CCOCC3)ccc2N2CCOCC2)cc1O`, the AC50 under setting [1] is 35.5 µM [rising, single point]. `Cc1ccc(NS(=O)(=O)c2cc(C(=O)N3CCCC3)ccc2C)cc1C`: under setting [1], the AC50 is 0.00501 µM [rising, full curve, poor fit]. With `Cc1ccc(-n2c3c(c(O)c(-c4ccccc4)c2=O)C(=O)CC(C)(C)C3)cc1`, the AC50 under setting [1] is 11.2 µM [rising, partial curve, poor fit] and the AC50 under setting [2] is 8.91 µM [rising, partial curve, poor fit].

On to `CCc1cc2c(Sc3nc4ccccc4s3)ncnc2s1`, for which the AC50 was 11.2 µM [falling, partial curve] under setting [1] and 12.6 µM [falling, partial curve] under setting [2]. `O=C(COc1ccc(S(=O)(=O)NC2CCCCC2)cc1Cl)N1CCN(c2ccccc2)CC1`: the AC50 under setting [2] was 14.1 µM [rising, single point]. Turning to `COc1ccc(CCNC(=O)CCCn2c(=O)c3cccn3c3ccc(F)cc32)cc1OC`, the AC50 under setting [1] is 1 µM [rising, partial curve, poor fit] and the concentration at half-maximal activity (AC50) under setting [2] was 8.91 µM [rising, partial curve]. For the compound `CC(C(=O)NC1CCCC1)N(c1ccc(Oc2ccccc2)cc1)S(C)(=O)=O` (centres undefined), the AC50 under setting [1] is 35.5 µM [falling, single point]. On to `Cc1[nH]nc(-c2ccc(O)cc2O)c1Oc1ccccc1`, for which the concentration at half-maximal activity (AC50) was 11.2 µM [falling, partial curve, poor fit] under setting [1] and 1 µM [falling, full curve] under setting [2].

For `CC(/C=C1\SC(=S)N(CCCC(=O)Nc2ccc(C(=O)O)cc2)C1=O)=C\c1ccccc1`, the AC50 by setting is: under setting [1], 35.5 µM [rising, single point]; under setting [2], 14.1 µM [rising, partial curve, poor fit]. For `CCc1cccc(CC)c1NC(=O)CSc1nc2ccc(N3C(=O)C4C5C=CC(C5)C4C3=O)cc2s1` (centres undefined), the AC50 under setting [2] is 12.6 µM [rising, single point]. With `COc1ccc(C(=O)C2CCCN(Cc3ccc(C#CCCO)cc3)C2)c(OC)c1` (centres undefined), the AC50 is 11.2 µM [falling, partial curve] under setting [1] and 10 µM [falling, partial curve] under setting [2].

With `Cc1ccccc1C(=O)NCc1ccc2c(c1)CCN2C(=O)c1ccc(F)cc1`, the AC50 runs as follows: under setting [1], 17.8 µM [falling, single point]; under setting [2], 2.51 µM [falling, partial curve, poor fit].
